From the supplement of paper PMC10849652
The other results are listed elsewhere or left out.

Sequences of proteins named here, by UniProt entry; tags and fusion partners are left off. A change or cut given only in a name is not applied to a line headed by its entry.
UniProt Q9NPD3, whole entry, looked up: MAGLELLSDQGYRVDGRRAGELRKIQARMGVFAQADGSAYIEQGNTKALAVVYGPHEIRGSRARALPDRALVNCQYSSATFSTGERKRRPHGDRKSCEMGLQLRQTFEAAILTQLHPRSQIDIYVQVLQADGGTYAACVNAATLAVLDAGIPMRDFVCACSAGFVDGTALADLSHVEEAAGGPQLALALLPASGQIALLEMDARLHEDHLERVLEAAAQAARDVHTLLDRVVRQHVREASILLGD
UniProt P58107: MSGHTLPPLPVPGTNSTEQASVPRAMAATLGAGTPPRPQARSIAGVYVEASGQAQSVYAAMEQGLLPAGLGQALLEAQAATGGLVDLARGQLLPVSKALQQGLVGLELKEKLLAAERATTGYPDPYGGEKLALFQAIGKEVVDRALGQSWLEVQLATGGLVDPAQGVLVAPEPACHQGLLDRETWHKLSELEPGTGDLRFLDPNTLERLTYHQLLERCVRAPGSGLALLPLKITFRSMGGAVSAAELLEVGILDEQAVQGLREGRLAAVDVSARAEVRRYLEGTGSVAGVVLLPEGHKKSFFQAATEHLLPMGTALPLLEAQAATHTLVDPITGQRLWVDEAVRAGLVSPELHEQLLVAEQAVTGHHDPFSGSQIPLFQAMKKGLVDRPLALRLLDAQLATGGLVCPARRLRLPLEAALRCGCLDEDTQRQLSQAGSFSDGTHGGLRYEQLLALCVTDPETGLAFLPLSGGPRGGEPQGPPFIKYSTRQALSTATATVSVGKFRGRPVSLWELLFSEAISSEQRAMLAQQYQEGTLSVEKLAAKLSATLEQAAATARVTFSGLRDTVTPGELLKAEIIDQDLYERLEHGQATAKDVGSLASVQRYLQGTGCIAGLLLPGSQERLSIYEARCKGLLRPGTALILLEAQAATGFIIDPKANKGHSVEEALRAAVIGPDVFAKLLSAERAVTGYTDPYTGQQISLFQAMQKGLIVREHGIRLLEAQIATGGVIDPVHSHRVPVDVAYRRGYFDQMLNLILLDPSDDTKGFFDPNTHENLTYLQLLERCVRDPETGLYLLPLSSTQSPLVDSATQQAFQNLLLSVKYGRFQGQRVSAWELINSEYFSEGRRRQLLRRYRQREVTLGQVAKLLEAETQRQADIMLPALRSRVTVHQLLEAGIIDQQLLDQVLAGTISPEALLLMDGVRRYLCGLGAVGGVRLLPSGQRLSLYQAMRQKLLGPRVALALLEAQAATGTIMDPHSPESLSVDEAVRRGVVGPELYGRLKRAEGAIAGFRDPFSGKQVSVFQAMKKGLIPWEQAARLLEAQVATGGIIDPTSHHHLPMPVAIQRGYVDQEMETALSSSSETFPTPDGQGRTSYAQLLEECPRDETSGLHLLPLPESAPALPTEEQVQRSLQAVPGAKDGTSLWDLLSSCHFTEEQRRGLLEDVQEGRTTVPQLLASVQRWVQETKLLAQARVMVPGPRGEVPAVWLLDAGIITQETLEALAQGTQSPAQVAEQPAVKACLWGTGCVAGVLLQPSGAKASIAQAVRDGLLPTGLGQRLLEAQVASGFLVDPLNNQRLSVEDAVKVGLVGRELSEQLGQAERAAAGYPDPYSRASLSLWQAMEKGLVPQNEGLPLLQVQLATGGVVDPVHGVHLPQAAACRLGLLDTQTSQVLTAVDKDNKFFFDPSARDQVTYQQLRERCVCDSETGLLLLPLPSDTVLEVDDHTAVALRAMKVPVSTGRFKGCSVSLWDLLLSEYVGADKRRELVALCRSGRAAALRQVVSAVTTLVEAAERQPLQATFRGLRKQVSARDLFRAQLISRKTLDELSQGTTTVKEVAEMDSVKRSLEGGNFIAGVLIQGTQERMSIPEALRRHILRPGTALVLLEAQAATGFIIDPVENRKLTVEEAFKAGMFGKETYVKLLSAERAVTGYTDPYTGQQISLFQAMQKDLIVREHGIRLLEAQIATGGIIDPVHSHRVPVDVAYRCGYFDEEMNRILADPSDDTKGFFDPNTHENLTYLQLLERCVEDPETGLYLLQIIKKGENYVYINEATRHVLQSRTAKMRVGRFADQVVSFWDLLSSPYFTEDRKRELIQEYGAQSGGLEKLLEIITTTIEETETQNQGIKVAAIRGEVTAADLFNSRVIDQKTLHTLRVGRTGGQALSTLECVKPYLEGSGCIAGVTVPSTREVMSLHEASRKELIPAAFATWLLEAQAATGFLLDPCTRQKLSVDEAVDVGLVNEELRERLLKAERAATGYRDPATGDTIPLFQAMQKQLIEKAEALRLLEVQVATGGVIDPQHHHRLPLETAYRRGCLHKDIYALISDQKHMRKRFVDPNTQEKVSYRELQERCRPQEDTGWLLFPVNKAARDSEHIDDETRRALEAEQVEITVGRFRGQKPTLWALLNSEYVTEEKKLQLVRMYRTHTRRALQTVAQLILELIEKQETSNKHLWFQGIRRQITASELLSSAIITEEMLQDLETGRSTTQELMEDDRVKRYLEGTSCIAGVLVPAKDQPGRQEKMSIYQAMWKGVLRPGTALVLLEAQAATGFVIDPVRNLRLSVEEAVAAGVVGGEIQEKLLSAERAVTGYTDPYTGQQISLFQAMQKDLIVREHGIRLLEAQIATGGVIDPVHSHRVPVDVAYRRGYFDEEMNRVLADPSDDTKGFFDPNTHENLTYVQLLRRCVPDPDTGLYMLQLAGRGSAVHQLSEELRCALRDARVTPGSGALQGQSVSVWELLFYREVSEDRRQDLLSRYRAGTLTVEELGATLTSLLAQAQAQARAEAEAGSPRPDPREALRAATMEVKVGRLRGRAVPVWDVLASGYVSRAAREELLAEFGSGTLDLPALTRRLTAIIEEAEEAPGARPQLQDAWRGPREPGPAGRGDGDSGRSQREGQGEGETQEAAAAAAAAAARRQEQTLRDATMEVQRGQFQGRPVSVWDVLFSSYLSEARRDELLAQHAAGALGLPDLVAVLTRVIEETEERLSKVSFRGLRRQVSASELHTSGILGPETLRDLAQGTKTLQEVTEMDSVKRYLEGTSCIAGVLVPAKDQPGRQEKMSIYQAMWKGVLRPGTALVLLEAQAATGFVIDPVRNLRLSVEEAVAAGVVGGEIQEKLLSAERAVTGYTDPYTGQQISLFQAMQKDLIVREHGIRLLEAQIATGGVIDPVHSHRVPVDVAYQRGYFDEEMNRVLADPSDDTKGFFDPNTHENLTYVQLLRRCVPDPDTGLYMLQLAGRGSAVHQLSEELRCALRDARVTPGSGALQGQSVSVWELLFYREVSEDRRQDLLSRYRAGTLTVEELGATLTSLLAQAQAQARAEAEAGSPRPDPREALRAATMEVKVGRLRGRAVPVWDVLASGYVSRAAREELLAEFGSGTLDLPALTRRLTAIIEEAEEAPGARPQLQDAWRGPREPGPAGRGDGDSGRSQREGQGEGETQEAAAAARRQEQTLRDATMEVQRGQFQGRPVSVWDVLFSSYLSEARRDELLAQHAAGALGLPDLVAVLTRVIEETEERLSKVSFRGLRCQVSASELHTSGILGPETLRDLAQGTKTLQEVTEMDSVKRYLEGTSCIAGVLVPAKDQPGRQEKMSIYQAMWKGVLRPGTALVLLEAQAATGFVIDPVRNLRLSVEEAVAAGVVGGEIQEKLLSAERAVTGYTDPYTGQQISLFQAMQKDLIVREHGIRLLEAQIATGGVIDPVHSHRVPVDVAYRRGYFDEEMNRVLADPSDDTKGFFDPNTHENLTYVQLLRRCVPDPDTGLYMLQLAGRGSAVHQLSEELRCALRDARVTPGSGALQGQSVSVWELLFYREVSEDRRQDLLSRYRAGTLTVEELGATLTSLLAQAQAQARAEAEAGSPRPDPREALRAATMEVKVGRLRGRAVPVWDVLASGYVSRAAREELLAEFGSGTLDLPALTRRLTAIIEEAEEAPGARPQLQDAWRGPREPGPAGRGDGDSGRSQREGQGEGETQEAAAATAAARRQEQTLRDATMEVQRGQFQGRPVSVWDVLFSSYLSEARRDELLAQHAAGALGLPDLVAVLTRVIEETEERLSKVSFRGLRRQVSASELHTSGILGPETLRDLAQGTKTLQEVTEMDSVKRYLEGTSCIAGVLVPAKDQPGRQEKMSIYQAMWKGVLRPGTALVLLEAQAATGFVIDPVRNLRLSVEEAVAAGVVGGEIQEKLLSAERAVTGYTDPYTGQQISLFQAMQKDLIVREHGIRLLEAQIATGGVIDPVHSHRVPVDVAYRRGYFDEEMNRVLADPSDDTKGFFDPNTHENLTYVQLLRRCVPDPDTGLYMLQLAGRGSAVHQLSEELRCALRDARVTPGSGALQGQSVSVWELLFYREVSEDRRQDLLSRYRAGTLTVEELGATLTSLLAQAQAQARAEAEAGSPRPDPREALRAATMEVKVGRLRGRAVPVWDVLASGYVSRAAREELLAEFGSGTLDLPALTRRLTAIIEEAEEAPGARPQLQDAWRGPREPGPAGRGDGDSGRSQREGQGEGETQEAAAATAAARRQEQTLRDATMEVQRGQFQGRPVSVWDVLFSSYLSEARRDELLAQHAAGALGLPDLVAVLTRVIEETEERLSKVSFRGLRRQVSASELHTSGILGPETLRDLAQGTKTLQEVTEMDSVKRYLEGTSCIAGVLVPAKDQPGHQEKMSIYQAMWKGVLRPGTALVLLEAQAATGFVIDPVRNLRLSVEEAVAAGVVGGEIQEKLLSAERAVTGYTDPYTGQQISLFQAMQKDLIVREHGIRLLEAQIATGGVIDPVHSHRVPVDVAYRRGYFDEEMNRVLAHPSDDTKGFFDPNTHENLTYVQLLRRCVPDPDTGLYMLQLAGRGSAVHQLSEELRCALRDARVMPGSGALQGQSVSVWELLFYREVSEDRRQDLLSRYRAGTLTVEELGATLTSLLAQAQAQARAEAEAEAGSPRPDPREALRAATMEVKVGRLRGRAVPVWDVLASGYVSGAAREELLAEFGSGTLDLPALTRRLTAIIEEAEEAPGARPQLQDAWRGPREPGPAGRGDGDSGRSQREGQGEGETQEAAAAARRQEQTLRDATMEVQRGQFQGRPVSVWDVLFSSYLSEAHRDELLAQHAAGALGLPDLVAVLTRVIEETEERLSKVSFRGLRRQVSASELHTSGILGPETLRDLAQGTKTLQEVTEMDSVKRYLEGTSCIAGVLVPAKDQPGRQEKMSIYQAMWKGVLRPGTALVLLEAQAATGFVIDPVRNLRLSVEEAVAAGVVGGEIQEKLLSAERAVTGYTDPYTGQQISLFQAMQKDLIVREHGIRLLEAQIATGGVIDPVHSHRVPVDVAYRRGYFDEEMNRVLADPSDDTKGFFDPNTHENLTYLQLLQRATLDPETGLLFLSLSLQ
UniProt Q13158: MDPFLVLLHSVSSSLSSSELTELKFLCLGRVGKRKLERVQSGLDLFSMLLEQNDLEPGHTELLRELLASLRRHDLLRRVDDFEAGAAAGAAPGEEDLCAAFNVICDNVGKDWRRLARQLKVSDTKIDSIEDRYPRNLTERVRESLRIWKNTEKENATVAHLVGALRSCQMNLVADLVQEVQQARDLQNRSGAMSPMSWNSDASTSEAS
UniProt O75063: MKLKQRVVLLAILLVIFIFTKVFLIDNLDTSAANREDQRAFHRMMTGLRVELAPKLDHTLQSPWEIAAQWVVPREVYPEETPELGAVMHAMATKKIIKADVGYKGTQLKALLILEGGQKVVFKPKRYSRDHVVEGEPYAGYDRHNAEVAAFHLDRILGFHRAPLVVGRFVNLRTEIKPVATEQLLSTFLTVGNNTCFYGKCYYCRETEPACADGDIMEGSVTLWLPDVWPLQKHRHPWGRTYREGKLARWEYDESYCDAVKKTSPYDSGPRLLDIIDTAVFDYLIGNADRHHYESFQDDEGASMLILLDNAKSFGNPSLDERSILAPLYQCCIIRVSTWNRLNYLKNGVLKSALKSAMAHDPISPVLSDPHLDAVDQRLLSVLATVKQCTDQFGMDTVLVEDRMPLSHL
UniProt Q96B26, whole entry, looked up: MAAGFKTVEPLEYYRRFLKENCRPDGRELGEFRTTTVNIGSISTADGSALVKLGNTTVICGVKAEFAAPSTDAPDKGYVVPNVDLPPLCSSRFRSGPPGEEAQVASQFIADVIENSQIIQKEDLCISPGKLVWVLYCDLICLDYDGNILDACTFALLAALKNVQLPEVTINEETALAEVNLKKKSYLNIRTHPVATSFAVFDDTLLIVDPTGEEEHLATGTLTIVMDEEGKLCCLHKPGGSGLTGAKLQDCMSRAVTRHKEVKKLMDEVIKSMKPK
UniProt Q96GK7: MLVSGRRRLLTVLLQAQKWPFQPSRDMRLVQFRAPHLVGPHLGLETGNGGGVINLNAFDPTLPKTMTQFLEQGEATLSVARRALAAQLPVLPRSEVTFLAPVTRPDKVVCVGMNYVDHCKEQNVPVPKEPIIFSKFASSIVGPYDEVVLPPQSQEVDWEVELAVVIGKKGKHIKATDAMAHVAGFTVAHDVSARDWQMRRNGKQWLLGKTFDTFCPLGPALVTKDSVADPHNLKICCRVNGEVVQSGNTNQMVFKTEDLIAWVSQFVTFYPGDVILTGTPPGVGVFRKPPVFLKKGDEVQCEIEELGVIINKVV

What was measured:
Test in all cases: log2 fold change, soluble protein after heating vs DMSO (PISA); higher = thermal stabilisation; K562 cells, 10 uM, 30 min; active = over 0.2 and 3.5 SD of the protein, either way, in both replicates (recomputed)
[1] = compound: CC[C@@H]1C(=O)N(C)c2cnc(Nc3ccc(C(=O)NC4CCN(C)CC4)cc3OC)nc2N1C1CCCC1
Procedure, shortened: (§1)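 K562 cells at 2×10^6 cells/mL were given 10 μM compound for 30 min. Aliquots then went through 3 min of heating across 48°C-58°C, were pooled, and were extracted in PBS with 0.5% NP-40 at 4°C, and the supernatant after 21,000xg for 90 min was quantified by TMTpro 16plex LC-MS/MS with channel sums equalised. Thermal stability relative to control samples, from duplicates, is given as log2 fold change.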

volasertib = compound: CC[C@@H]1C(=O)N(C)c2cnc(Nc3ccc(C(=O)N[C@H]4CC[C@H](N5CCN(CC6CC6)CC5)CC4)cc3OC)nc2N1C(C)C [volasertib]
Procedure, shortened: as §1

[2] = compound: CC[C@H](C)N1C=C(C2=C(C=C(C=C21)C3=CN=C(C=C3)N4CCNCC4)C(=O)NCC5=C(C=C(NC5=O)C)C)C
Procedure, shortened: as §1

epoxomicin = compound: CC[C@H](C)[C@@H](C(=O)N[C@@H]([C@@H](C)O)C(=O)N[C@@H](CC(C)C)C(=O)[C@]1(CO1)C)NC(=O)[C@H]([C@@H](C)CC)N(C)C(=O)C [epoxomicin]
Procedure, shortened: as §1

[3] = compound: CCn1c(C(=O)N(C2CC2)C2CC2)cc2c3c(ncn3C)c(Nc3cc(C)n(C)n3)nc21
Procedure, shortened: as §1

[4] = compound: CCn1cc(-c2ccnc3[nH]c(-c4cccc(CN(C)C)c4)cc23)c(-c2ccc(NC(=O)N(C)C)cc2)n1
Procedure, shortened: as §1

[5] = compound: CN(C)CC(=O)Nc1ccc2[nH]c(=O)c3ccccc3c2c1
Procedure, shortened: as §1

rosiglitazone = compound: CN(CCOC1=CC=C(C=C1)C[C@H]2C(=O)NC(=O)S2)C3=CC=CC=N3 (racemic) [rosiglitazone]
Procedure, shortened: as §1

[6] = compound: CN1C2=C(C3=C1C(=O)N(N=C3)CC4=CC(=CC=C4)N)SC(=C2)S(=O)C
Procedure, shortened: as §1

[7] = compound: CN1CCC(CNc2ccc3ncc(-c4cccc(OC(F)(F)F)c4)n3n2)CC1
Procedure, shortened: as §1

saracatinib = compound: CN1CCN(CCOc2cc(OC3CCOCC3)c3c(Nc4c(Cl)ccc5c4OCO5)ncnc3c2)CC1 [saracatinib]
Procedure, shortened: as §1

sotrastaurin = compound: CN1CCN(c2nc(C3=C(c4c[nH]c5ccccc45)C(=O)NC3=O)c3ccccc3n2)CC1 [sotrastaurin]
Procedure, shortened: as §1

alvocidib = compound: CN1CC[C@H](c2c(O)cc(O)c3c(=O)cc(-c4ccccc4Cl)oc23)[C@H](O)C1 [alvocidib]
Procedure, shortened: as §1

Tubastatin A = compound: CN1CCc2c(c3ccccc3n2Cc2ccc(C(=O)NO)cc2)C1 [Tubastatin A]
Procedure, shortened: as §1

[8] = compound: CNC(=O)C1=CC=CC=C1NC2=NC(=NC=C2Cl)NC3=C(C=C(C=C3)N4CCOCC4)OC
Procedure, shortened: as §1

defactinib = compound: CNC(=O)c1ccc(Nc2ncc(C(F)(F)F)c(NCc3nccnc3N(C)S(C)(=O)=O)n2)cc1 [defactinib]
Procedure, shortened: as §1

rucaparib = compound: CNCc1ccc(-c2[nH]c3cc(F)cc4c3c2CCNC4=O)cc1 [rucaparib]
Procedure, shortened: as §1

[9] = compound: CNc1nc(-c2ccc3c(N)n[nH]c3c2)cc(N2C[C@@H](C(=O)NC3CCCCC3)CC[C@H]2C)n1
Procedure, shortened: as §1

encorafenib = compound: COC(=O)N[C@@H](C)CNc1nccc(-c2cn(C(C)C)nc2-c2cc(Cl)cc(NS(C)(=O)=O)c2F)n1 [encorafenib]
Procedure, shortened: as §1

[10] = compound: COC(=O)[C@H](CCSC)NC(=O)C1=C(C=C(C=C1)NC[C@H](CS)N)C2=CC=CC=C2
Procedure, shortened: as §1

Measured: log2 fold change

FAH isoform 2 (UniProt P16930)
inactive: [1] 0.131 | volasertib 0.057 | [2] 0 | epoxomicin -0.027 | [3] -0.187 | [4] 0.128 | [5] -0.058 | rosiglitazone 0.058 | [6] -0.061 | [7] 0.019 | saracatinib 0.03 | sotrastaurin 0.001 | alvocidib 0.06 | Tubastatin A -0.032 | [8] 0.021 | defactinib 0 | rucaparib -0.365 | [9] -0.128 | encorafenib 0.113 | [10] 0.054

EXOC3 (UniProt O60645)
inactive: [1] -0.109 | volasertib -0.293 | [2] 0.122 | epoxomicin -0.052 | [3] -0.108 | [4] 0.003 | [5] 0.041 | rosiglitazone 0.076 | [6] 0.088 | [7] -0.321 | saracatinib -0.104 | sotrastaurin -0.137 | alvocidib -0.051 | Tubastatin A 0.002 | [8] 0.05 | defactinib -0.058 | rucaparib 0.152 | [9] -0.064 | encorafenib 0.062 | [10] -0.01

EPS15 (UniProt P42566)
inactive: [1] -0.062 | volasertib -0.214 | [2] 0.046 | epoxomicin 0.031 | [3] -0.004 | [4] -0.062 | [5] 0.004 | rosiglitazone 0.037 | [6] 0.016 | [7] -0.02 | saracatinib 0.041 | sotrastaurin -0.032 | alvocidib 0.03 | Tubastatin A -0.002 | [8] 0.075 | defactinib -0.009 | rucaparib 0.003 | [9] -0.072 | encorafenib 0.053 | [10] -0.011

EXOSC4 (UniProt Q9NPD3)
inactive: [1] 0.057 | volasertib -0.01 | [2] -0.068 | epoxomicin 0.023 | [3] 0.022 | [4] 0.047 | [5] 0.002 | rosiglitazone -0.053 | [6] -0.032 | [7] 0.132 | saracatinib 0.088 | sotrastaurin 0 | alvocidib -0.002 | Tubastatin A -0.095 | [8] -0.005 | defactinib -0.004 | rucaparib 0.012 | [9] -0.012 | encorafenib 0.004 | [10] 0.059

ERBIN isoform 8 (UniProt Q96RT1)
inactive: [1] 0.007 | volasertib 0.064 | [2] 0.083 | epoxomicin -0.026 | [3] 0.002 | [4] -0.094 | [5] -0.003 | rosiglitazone 0.011 | [6] -0.108 | [7] 0.087 | saracatinib -0.005 | sotrastaurin -0.098 | alvocidib -0.063 | Tubastatin A 0.043 | [8] 0.024 | defactinib -0.015 | rucaparib -0.001 | [9] 0.048 | encorafenib -0.036 | [10] 0.015

ETFB (UniProt P38117)
inactive: [1] -0.077 | volasertib 0.118 | [2] -0.021 | epoxomicin 0.024 | [3] -0.003 | [4] 0.011 | [5] -0.029 | rosiglitazone 0.02 | [6] -0.059 | [7] -0.026 | saracatinib -0.002 | sotrastaurin 0.044 | alvocidib -0.012 | Tubastatin A -0.052 | [8] 0 | defactinib 0.015 | rucaparib -0.072 | [9] 0.033 | encorafenib -0.025 | [10] 0.026

EPPK1 (UniProt P58107)
inactive: [1] 0.471 | volasertib -0.369 | [2] 0.075 | epoxomicin -0.237 | [3] -0.109 | [4] -0.052 | [5] 0.069 | rosiglitazone -0.078 | [6] 0.421 | [7] -0.016 | saracatinib -0.223 | sotrastaurin -0.266 | alvocidib 0.13 | Tubastatin A -0.141 | [8] -0.144 | defactinib 0.092 | rucaparib 0.292 | [9] 0.058 | encorafenib 0.104 | [10] -0.265

ESD (UniProt P10768)
inactive: [1] -0.016 | volasertib 0.061 | [2] -0.014 | epoxomicin -0.009 | [3] -0.011 | [4] 0.022 | [5] -0.009 | rosiglitazone 0.003 | [6] -0.052 | [7] 0.002 | saracatinib -0.011 | sotrastaurin 0.047 | alvocidib 0.003 | Tubastatin A 0.039 | [8] 0.091 | defactinib 0 | rucaparib -0.072 | [9] -0.033 | encorafenib -0.006 | [10] -0.001

ERC1 (UniProt Q8IUD2)
inactive: [1] 0.009 | volasertib -0.205 | [2] -0.166 | epoxomicin 0.036 | [3] 0.015 | [4] -0.081 | [5] -0.016 | rosiglitazone -0.016 | [6] 0.094 | [7] -0.104 | saracatinib -0.014 | sotrastaurin -0.24 | alvocidib 0.029 | Tubastatin A 0.165 | [8] -0.072 | defactinib -0.086 | rucaparib -0.005 | [9] -0.025 | encorafenib -0.176 | [10] -0.002

FADD (UniProt Q13158)
inactive: [1] 0.127 | volasertib -0.138 | [2] -0.003 | epoxomicin -0.048 | [3] -0.027 | [5] -0.048 | rosiglitazone 0.026 | [6] -0.015 | saracatinib 0.089 | sotrastaurin -0.13 | alvocidib -0.107 | Tubastatin A -0.098 | [8] -0.071 | defactinib -0.072 | rucaparib 0.272 | [9] -0.011 | encorafenib 0.155 | [10] 0.011

FAF1 (UniProt Q9UNN5)
inactive: [1] -0.017 | volasertib -0.069 | [2] 0.02 | epoxomicin 0.038 | [3] 0.028 | [4] -0.031 | [5] -0.026 | rosiglitazone -0.003 | [6] -0.037 | [7] 0.001 | saracatinib 0.057 | sotrastaurin -0.017 | alvocidib -0.073 | Tubastatin A -0.04 | [8] 0.003 | defactinib -0.05 | rucaparib -0.044 | [9] -0.038 | encorafenib 0.02 | [10] 0.015

ESRRA (UniProt P11474)
inactive: [1] 0.11 | volasertib -0.26 | [2] -0.123 | epoxomicin 0.147 | [3] 0.021 | [4] 0.044 | [5] -0.122 | [6] 0.04 | [7] -0.063 | saracatinib 0.062 | sotrastaurin -0.005 | alvocidib -0.025 | Tubastatin A -0.056 | [8] 0.044 | defactinib -0.06 | rucaparib -0.012 | [9] -0.063 | encorafenib -0.027 | [10] 0.025

ERAL1 (UniProt O75616)
inactive: [1] 0.212 | volasertib 0.242 | [2] -0.086 | epoxomicin 0.116 | [3] -0.042 | [5] 0.292 | rosiglitazone 0.027 | [6] 0.162 | saracatinib 0.129 | sotrastaurin -0.02 | alvocidib -0.035 | [8] 0.009 | defactinib -0.149 | rucaparib 0.216 | [9] -0.032 | encorafenib 0.115 | [10] 0.125

FAM20B (UniProt O75063)
inactive: [1] -0.01 | volasertib -0.091 | [2] 0.047 | epoxomicin 0.01 | [3] -0.008 | [4] 0.008 | [5] -0.042 | rosiglitazone 0.011 | [6] -0.05 | [7] 0.098 | saracatinib -0.032 | sotrastaurin 0.005 | alvocidib -0.051 | Tubastatin A 0.119 | [8] -0.064 | defactinib -0.059 | rucaparib -0.032 | [9] -0.034 | encorafenib 0.064 | [10] 0.01

EXOSC8 (UniProt Q96B26)
inactive: [1] 0.025 | volasertib 0.088 | [2] -0.046 | epoxomicin -0.04 | [3] 0.008 | [4] 0.051 | [5] -0.064 | rosiglitazone -0.001 | [6] -0.038 | [7] 0.057 | saracatinib 0.032 | sotrastaurin 0.051 | alvocidib 0.057 | Tubastatin A -0.03 | [8] 0.043 | defactinib 0.014 | rucaparib -0.026 | [9] -0.055 | encorafenib -0.024 | [10] 0.013

2 entries drawn at random from those above:
EXOSC8 (UniProt Q96B26)
inactive: [1] 0.025 | volasertib 0.088 | [2] -0.046 | epoxomicin -0.04 | [3] 0.008 | [4] 0.051 | [5] -0.064 | rosiglitazone -0.001 | [6] -0.038 | [7] 0.057 | saracatinib 0.032 | sotrastaurin 0.051 | alvocidib 0.057 | Tubastatin A -0.03 | [8] 0.043 | defactinib 0.014 | rucaparib -0.026 | [9] -0.055 | encorafenib -0.024 | [10] 0.013

FAM20B (UniProt O75063)
inactive: [1] -0.01 | volasertib -0.091 | [2] 0.047 | epoxomicin 0.01 | [3] -0.008 | [4] 0.008 | [5] -0.042 | rosiglitazone 0.011 | [6] -0.05 | [7] 0.098 | saracatinib -0.032 | sotrastaurin 0.005 | alvocidib -0.051 | Tubastatin A 0.119 | [8] -0.064 | defactinib -0.059 | rucaparib -0.032 | [9] -0.034 | encorafenib 0.064 | [10] 0.01

The results go on:

FAHD2A (UniProt Q96GK7)
inactive: [1] 0.05 | volasertib 0.064 | [2] -0.001 | epoxomicin 0.015 | [3] 0.023 | [4] -0.016 | [5] 0.005 | rosiglitazone 0.006 | [6] -0.046 | [7] -0.004 | saracatinib 0.047 | sotrastaurin 0.019 | alvocidib -0.004 | Tubastatin A 0.011 | [8] 0.015 | defactinib -0.04 | rucaparib -0.024 | [9] -0.026 | encorafenib -0.017 | [10] -0.006
